The source gives many values for each of these; only a part stands here.
System: PRISM DNA-barcoded human tumour cell lines
Assay: PRISM pooled cell viability assay;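 also: 8 threefold dilutions from 10 µM with 5 days of exposure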
Assay type: cell-based
Design: Area under the curve (AUC): scale not given here
Conditions: for PRISM AUC: KRAS MUT
Method: Cells were then lysed in TCL mRNA lysis buffer, and then PCR with reverse transcription was performed. Detection of the barcodes and univariate and multivariate analysis was then performed as previously described. Data analysis is described in the Supplementary Methods. Up-to-date code for our analysis is at the github link: https://github.com/cmap/dockerized_mts.
For every gene with non-silent mutations in at least four cell-lines, we compared the AUC values between cells with and without those mutations using a t-test. This analysis was carried out for: (i) the full dataset; (ii) excluding cell lines with non-silent KRAS mutations; and (iii) excluding cell lines that have either KRAS or NRAS non-silent mutations.

[1] = OCIAML5_HAEMATOPOIETIC_AND_LYMPHOID_TISSUE
[2] = PL21_HAEMATOPOIETIC_AND_LYMPHOID_TISSUE

CCn1c(-c2cc(N3CCN(C4CC4)CC3)cnc2[C@H](C)OC)c2c3cc(ccc31)-c1csc(n1)C[C@H](NC(=O)[C@H]1[C@@H]3COC[C@@H]31)C(=O)N1CCC[C@H](N1)C(=O)OCC(C)(C)C2 [RMC-7977]
Area under the curve (AUC) (NCIH2172_LUNG): 0.8328
Area under the curve (AUC) (NCIH2228_LUNG): 0.5732
Area under the curve (AUC) (NCIH2347_LUNG): 0.3956
PRISM AUC (NCIH2347_LUNG): 0.4505
Area under the curve (AUC) (NCIH2444_LUNG): 0.4967
Area under the curve (AUC) (NCIH2452_PLEURA): 0.9903
Area under the curve (AUC) (NCIN87_STOMACH): 0.5798
Area under the curve (AUC) (NCO2_HAEMATOPOIETIC_AND_LYMPHOID_TISSUE): 0.7331
Area under the curve (AUC) (NIHOVCAR3_OVARY): 0.7636
Area under the curve (AUC) (NOMO1_HAEMATOPOIETIC_AND_LYMPHOID_TISSUE): 0.3935
Area under the curve (AUC) (NOZ_LIVER): 0.5803
Area under the curve (AUC) (NP2_CENTRAL_NERVOUS_SYSTEM): 0.9956
Area under the curve (AUC) (NP3_CENTRAL_NERVOUS_SYSTEM): 0.8306
Area under the curve (AUC) (NP5_CENTRAL_NERVOUS_SYSTEM): 0.926
Area under the curve (AUC) (NUDHL1_HAEMATOPOIETIC_AND_LYMPHOID_TISSUE): 0.3008
Area under the curve (AUC) (NUGC3_STOMACH): 0.4056
Area under the curve (AUC) (NUGC4_STOMACH): 0.4996
Area under the curve (AUC) (NZOV9_OVARY): 0.6452
Area under the curve (AUC) (OACM51_OESOPHAGUS): 0.5083
Area under the curve (AUC) (OAW42_OVARY): 0.6038
Area under the curve (AUC) (OC314_OVARY): 0.851
Area under the curve (AUC) (OC316_OVARY): 0.8555
Area under the curve (AUC) (OCIAML2_HAEMATOPOIETIC_AND_LYMPHOID_TISSUE): 0.6487
Area under the curve (AUC) (OCIAML3_HAEMATOPOIETIC_AND_LYMPHOID_TISSUE): 0.3059
Area under the curve (AUC) [1]: 0.5147
PRISM AUC [1]: 0.2689
Area under the curve (AUC) (OCIC4P_OVARY): 0.8661
Area under the curve (AUC) (OCIC5X_OVARY): 0.7782
Area under the curve (AUC) (OCILY3_HAEMATOPOIETIC_AND_LYMPHOID_TISSUE): 0.8848
Area under the curve (AUC) (OCILY18_HAEMATOPOIETIC_AND_LYMPHOID_TISSUE): 0.6701
Area under the curve (AUC) (OCILY19_HAEMATOPOIETIC_AND_LYMPHOID_TISSUE): 0.4381
Area under the curve (AUC) (OCILY132_HAEMATOPOIETIC_AND_LYMPHOID_TISSUE): 0.8581
Area under the curve (AUC) (OCIM1_HAEMATOPOIETIC_AND_LYMPHOID_TISSUE): 0.6092
Area under the curve (AUC) (OCIP5X_OVARY): 0.9315
Area under the curve (AUC) (OCUG1_BILIARY_TRACT): 0.5079
Area under the curve (AUC) (OE19_OESOPHAGUS): 0.5885
Area under the curve (AUC) (OE21_OESOPHAGUS): 0.6891
Area under the curve (AUC) (OE33_OESOPHAGUS): 0.6044
Area under the curve (AUC) (ONCODG1_OVARY): 0.8782
Area under the curve (AUC) (ONDA9_CENTRAL_NERVOUS_SYSTEM): 0.7971
Area under the curve (AUC) (ONS76_CENTRAL_NERVOUS_SYSTEM): 0.4914
Area under the curve (AUC) (OSC20_UPPER_AERODIGESTIVE_TRACT): 0.6582
Area under the curve (AUC) (OSRC2_KIDNEY): 0.8752
Area under the curve (AUC) (OUMS23_LARGE_INTESTINE): 0.9453
Area under the curve (AUC) (OV7_OVARY): 0.5413
Area under the curve (AUC) (OV17R_OVARY): 0.99
Area under the curve (AUC) (OV56_OVARY): 0.8075
Area under the curve (AUC) (OVCAR8_OVARY): 0.8791
PRISM AUC (OVCAR8_OVARY): 0.804
Area under the curve (AUC) (OVISE_OVARY): 0.8449
Area under the curve (AUC) (OVK18_OVARY): 0.8289
PRISM AUC (OVK18_OVARY): 0.6556
Area under the curve (AUC) (OVKATE_OVARY): 0.9563
Area under the curve (AUC) (OVTOKO_OVARY): 0.8023
Area under the curve (AUC) (OZ_BILIARY_TRACT): 0.5442
Area under the curve (AUC) (P12ICHIKAWA_HAEMATOPOIETIC_AND_LYMPHOID_TISSUE): 0.4183
Area under the curve (AUC) (PA1_OVARY): 0.9599
Area under the curve (AUC) (PACADD119_PANCREAS): 0.6424
Area under the curve (AUC) (PACADD137_PANCREAS): 0.6574
Area under the curve (AUC) (PACADD161_PANCREAS): 0.3745
Area under the curve (AUC) (PANC1_PANCREAS): 0.8561
Area under the curve (AUC) (PANC0203_PANCREAS): 0.4438
Area under the curve (AUC) (PANC0327_PANCREAS): 0.4406
Area under the curve (AUC) (PANC0403_PANCREAS): 0.4691
Area under the curve (AUC) (PANC0504_PANCREAS): 0.3891
Area under the curve (AUC) (PANC0813_PANCREAS): 0.6032
Area under the curve (AUC) (PANC1005_PANCREAS): 0.5716
Area under the curve (AUC) (PATU8902_PANCREAS): 0.5642
Area under the curve (AUC) (PATU8988S_PANCREAS): 0.3124
Area under the curve (AUC) (PATU8988T_PANCREAS): 0.6698
Area under the curve (AUC) (PC3_PROSTATE): 0.9567
Area under the curve (AUC) (PC14_LUNG): 0.6329
Area under the curve (AUC) (PEA1_OVARY): 0.9425
Area under the curve (AUC) (PECAPJ15_UPPER_AERODIGESTIVE_TRACT): 0.6157
Area under the curve (AUC) (PECAPJ41CLONED2_UPPER_AERODIGESTIVE_TRACT): 0.5902
Area under the curve (AUC) (PECAPJ49_UPPER_AERODIGESTIVE_TRACT): 0.5324
Area under the curve (AUC) (PEDS005TPFAD_KIDNEY): 0.523
Area under the curve (AUC) (PEDS005TSUSP_KIDNEY): 0.6711
Area under the curve (AUC) (PEDS015T_SOFT_TISSUE): 0.8335
Area under the curve (AUC) (PF382_HAEMATOPOIETIC_AND_LYMPHOID_TISSUE): 0.6811
Area under the curve (AUC) (PFSK1_CENTRAL_NERVOUS_SYSTEM): 1
Area under the curve (AUC) (PK1_PANCREAS): 0.5167
Area under the curve (AUC) (PK8_PANCREAS): 0.4344
Area under the curve (AUC) (PK45H_PANCREAS): 0.6328
Area under the curve (AUC) (PK59_PANCREAS): 0.5978
Area under the curve (AUC) [2]: 0.4594
PRISM AUC [2]: 0.3247
Area under the curve (AUC) (PLCPRF5_LIVER): 0.7305
Area under the curve (AUC) (PMFKO14_LARGE_INTESTINE): 0.4169
Area under the curve (AUC) (PRISM cell line TE9_OESOPHAGUS): 0.6232
Area under the curve (AUC) (PRISM cell line TEN_ENDOMETRIUM): 0.8542
Area under the curve (AUC) (PRISM cell line TF1_HAEMATOPOIETIC_AND_LYMPHOID_TISSUE): 0.4071
Area under the curve (AUC) (PRISM cell line TFK1_BILIARY_TRACT): 0.8617
Area under the curve (AUC) (PRISM cell line TGBC1TKB_BILIARY_TRACT): 0.8572
Area under the curve (AUC) (PRISM cell line TGBC18TKB_LARGE_INTESTINE): 0.6068
Area under the curve (AUC) (PRISM cell line TGBC52TKB_BILIARY_TRACT): 0.543
Area under the curve (AUC) (PRISM cell line TGW_AUTONOMIC_GANGLIA): 0.5407
Area under the curve (AUC) (PRISM cell line THP1_HAEMATOPOIETIC_AND_LYMPHOID_TISSUE): 0.828
Area under the curve (AUC) (PRISM cell line TM31_CENTRAL_NERVOUS_SYSTEM): 0.9195
Area under the curve (AUC) (PRISM cell line TM87_SOFT_TISSUE): 0.7072
Area under the curve (AUC) (PRISM cell line TOV21G_OVARY): 0.6422
Area under the curve (AUC) (PRISM cell line TOV112D_OVARY): 0.6933
Area under the curve (AUC) (PRISM cell line TT1TKB_LARGE_INTESTINE): 0.3579
Area under the curve (AUC) (PRISM cell line TT2609C02_THYROID): 0.5333
Area under the curve (AUC) (PRISM cell line TTC442_SOFT_TISSUE): 0.784
Area under the curve (AUC) (PRISM cell line TTC549_SOFT_TISSUE): 0.7285
Area under the curve (AUC) (PRISM cell line TTC642_SOFT_TISSUE): 0.7974
Area under the curve (AUC) (PRISM cell line TTC709_SOFT_TISSUE): 0.7714
Area under the curve (AUC) (PRISM cell line TTC1240_SOFT_TISSUE): 0.6529
Area under the curve (AUC) (PRISM cell line TT_OESOPHAGUS): 0.7209
Area under the curve (AUC) (PRISM cell line TT_THYROID): 1
Area under the curve (AUC) (PRISM cell line TYKNU_OVARY): 0.5228
Area under the curve (AUC) (PRISM cell line U2OS_BONE): 0.6419
Area under the curve (AUC) (PRISM cell line U87MG_CENTRAL_NERVOUS_SYSTEM): 0.8442
Area under the curve (AUC) (PRISM cell line U118MG_CENTRAL_NERVOUS_SYSTEM): 0.7908
Area under the curve (AUC) (PRISM cell line U178_CENTRAL_NERVOUS_SYSTEM): 0.7553
Area under the curve (AUC) (PRISM cell line U251MG_CENTRAL_NERVOUS_SYSTEM): 0.6535
Area under the curve (AUC) (PRISM cell line U266B1_HAEMATOPOIETIC_AND_LYMPHOID_TISSUE): 0.9023
